Data from PubChem BioAssay AID662 (National Center for Advancing Translational Sciences (NCATS), 2007).
This is one part of the list. Shown are side measurements of this screen, not its main read-out; they come without a call. The list favours compounds with an active or inconclusive main result. Potencies come from curve fits of mixed quality, noted in brackets.

Test: Cell signaling CRE-BLA (Fsk stim)
Settings: CHO CRE-bla reporter (cAMP response element driving beta-lactamase), forskolin EC10, beta-lactamase ratio; measured here: 460 nm blue channel
In short: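 The 460nm/530nm emission ratio after CCF4 loading defined %Activity, from which AC50 values were obtained. CRE-bla CHO cells received compound dilution series together with an EC10 level of NKH 477 for 3 hours at 37 degrees Celsius.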

SMILES	AC50
CCCCCCN1C(=O)C(O)=C(C(C)=O)C1c1ccc(Cl)cc1 (centres undefined)	0.631 µM [rising, full curve]
CCOC(=O)c1c(-c2cccs2)csc1NC(=O)CN1CC(C)OC(C)C1 (centres undefined)	2.51 µM [rising, full curve]
COc1ccc(OC)c(C2CC(=O)c3c([nH]c(C(=O)OC(C)C)c3C)C2)c1 (centres undefined)	2.51 µM [rising, full curve]
CS(=O)(=O)Nc1cccc(-c2cncnc2-n2ccnc2)c1	0.158 µM [rising, partial curve]
Cc1cc(C)c2c(=O)n(CC(=O)NCCCN3CCN(c4ccccc4F)CC3)sc2n1	25.1 µM [falling, single point]
CCc1nnc(NC(=O)CCC(=O)N2CCN(CCOc3ccc(C)cc3)CC2)s1	12.6 µM [rising, partial curve]
COCCCn1c(SCC(=O)Nc2ccc(C(C)=O)cc2)nc2ccccc2c1=O	10 µM [rising, partial curve]
COc1cccc(Cn2c(=O)c(CCc3ccccc3)nc3cnc(N4CCOCC4)nc32)c1	3.16 µM [rising, partial curve]
NC(=O)c1sc2nc(N3CCCCC3)c3c(c2c1N)CCCC3	2.51 µM [rising, partial curve]
O/N=C(\COc1ccccc1O)c1ccccc1	0.501 µM [falling, partial curve]
CS(=O)(=O)Nc1cccc(-c2ccc3ncnc(NCCN4CCOCC4)c3c2)c1	7.94 µM [rising, partial curve]
O=C(OCC(=O)N1CCN(c2ccccc2)CC1)C1=COCCO1	5.01 µM [falling, single point]
Nc1ccc2c3c(cccc13)C(=O)NC2=O	25.1 µM [rising, partial curve]
CCOn1c(=O)c(=O)n(OCc2ccccc2)c2ccccc21	0.251 µM [rising, partial curve]
COc1ccc(-c2nc3cnc(N4CCN(C)CC4)nc3n(-c3ccc(OC)cc3)c2=O)cc1	12.6 µM [rising, partial curve]
N#CCSc1nnc2sc3ccccc3n12	15.8 µM [rising, single point]
COc1ccc(CNC(=O)C(c2cccs2)N(C(=O)c2csnn2)C2CC2)cc1 (centres undefined)	10 µM [falling, partial curve]
O=C(O)CC(c1ccccc1)n1cccc1 (centres undefined)	5.01 µM [rising, single point]
Cc1cc(C)c2c(N)c(C(=O)N3CCN(c4ncccn4)CC3)sc2n1	12.6 µM [rising, partial curve]

Copied from the list.
COc1ccc(-c2nc3cnc(N4CCN(C)CC4)nc3n(-c3ccc(OC)cc3)c2=O)cc1 – AC50: 12.6 µM [rising, partial curve]
CCCCCCN1C(=O)C(O)=C(C(C)=O)C1c1ccc(Cl)cc1 (centres undefined) – AC50: 0.631 µM [rising, full curve]
